# Paper doi:10.1101/2020.04.16.001255
# Chains of the proteins cited; added tags and fusions are not shown.
# UniProt Q92993: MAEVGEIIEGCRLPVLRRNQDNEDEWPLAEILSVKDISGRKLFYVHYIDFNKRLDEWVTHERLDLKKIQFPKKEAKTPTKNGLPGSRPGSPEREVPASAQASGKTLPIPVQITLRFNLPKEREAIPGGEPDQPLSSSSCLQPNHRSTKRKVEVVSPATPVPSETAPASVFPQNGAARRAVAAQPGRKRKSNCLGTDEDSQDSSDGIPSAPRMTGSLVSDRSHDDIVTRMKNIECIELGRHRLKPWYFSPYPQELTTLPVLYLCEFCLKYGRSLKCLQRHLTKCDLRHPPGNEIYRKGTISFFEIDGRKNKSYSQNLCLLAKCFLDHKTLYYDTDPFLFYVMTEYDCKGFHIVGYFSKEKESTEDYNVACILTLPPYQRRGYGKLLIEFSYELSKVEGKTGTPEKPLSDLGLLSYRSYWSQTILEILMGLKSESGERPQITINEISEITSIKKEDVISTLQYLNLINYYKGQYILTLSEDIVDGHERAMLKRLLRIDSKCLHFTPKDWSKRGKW
# These are yes or no findings as the source states them, for the method shown. Binding seen in cells or lysates may run through a third protein. Some results given as binding are weak or reduced against the parent protein; the word gives no strength. Tags and fused reporters may be left off the sequences shown.
# B1: FE65-EGFP (protein, UniProt O00213 1-710)
# chain: MSVPSSLSQSAINANSHGGPALSLPLPLHAAHNQLLNAKLQATAVGPKDLRSAMGEGGGPEPGPANAKWLKEGQNQLRRAATAHRDQNRNVTLTLAEEASQEPEMAPLGPKGLIHLYSELELSAHNAANRGLRGPGLIISTQEQGPDEGEEKAAGEAEEEEEDDDDEEEEEDLSSPPGLPEPLESVEAPPRPQALTDGPREHSKSASLLFGMRNSAASDEDSSWATLSQGSPSYGSPEDTDSFWNPNAFETDSDLPAGWMRVQDTSGTYYWHIPTGTTQWEPPGRASPSQGSSPQEESQLTWTGFAHGEGFEDGEFWKDEPSDEAPMELGLKEPEEGTLTFPAQSLSPEPLPQEEEKLPPRNTNPGIKCFAVRSLGWVEMTEEELAPGRSSVAVNNCIRQLSYHKNNLHDPMSGGWGEGKDLLLQLEDETLKLVEPQSQALLHAQPIISIRVWGVGRDSGRERDFAYVARDKLTQMLKCHVFRCEAPAKNIATSLHEICSKIMAERRNARCLVNGLSLDHSKLVDVPFQVEFPAPKNELVQKFQVYYLGNVPVAKPVGVDVINGALESVLSSSSREQWTPSHVSVAPATLTILHQQTEAVLGECRVRFLSFLAVGRDVHTFAFIMAAGPASFCCHMFWCEPNAASLSEAVQAACMLRYQKCLDARSQASTSCLPAPPAESVARRVGWTVRRGVQSLWGSLKPKRLGAHTP
# Target: TIP60-HA (UniProt Q92993)
# Assay: co-IP
binder,measurement,value
B1,binding,binds
